The supplement of paper PMC12067093, “Discovery and optimisation of a covalent ligand for TRIM25 and its application to targeted protein ubiquitination” (Chemical Science, 2025)
The list shows a part of the results.

By UniProt entry, the sequences of proteins in these tests, tags left out. Where a name states a change or a piece, a line headed by the entry shows the natural chain unless it says otherwise.
UniProt Q96Q15: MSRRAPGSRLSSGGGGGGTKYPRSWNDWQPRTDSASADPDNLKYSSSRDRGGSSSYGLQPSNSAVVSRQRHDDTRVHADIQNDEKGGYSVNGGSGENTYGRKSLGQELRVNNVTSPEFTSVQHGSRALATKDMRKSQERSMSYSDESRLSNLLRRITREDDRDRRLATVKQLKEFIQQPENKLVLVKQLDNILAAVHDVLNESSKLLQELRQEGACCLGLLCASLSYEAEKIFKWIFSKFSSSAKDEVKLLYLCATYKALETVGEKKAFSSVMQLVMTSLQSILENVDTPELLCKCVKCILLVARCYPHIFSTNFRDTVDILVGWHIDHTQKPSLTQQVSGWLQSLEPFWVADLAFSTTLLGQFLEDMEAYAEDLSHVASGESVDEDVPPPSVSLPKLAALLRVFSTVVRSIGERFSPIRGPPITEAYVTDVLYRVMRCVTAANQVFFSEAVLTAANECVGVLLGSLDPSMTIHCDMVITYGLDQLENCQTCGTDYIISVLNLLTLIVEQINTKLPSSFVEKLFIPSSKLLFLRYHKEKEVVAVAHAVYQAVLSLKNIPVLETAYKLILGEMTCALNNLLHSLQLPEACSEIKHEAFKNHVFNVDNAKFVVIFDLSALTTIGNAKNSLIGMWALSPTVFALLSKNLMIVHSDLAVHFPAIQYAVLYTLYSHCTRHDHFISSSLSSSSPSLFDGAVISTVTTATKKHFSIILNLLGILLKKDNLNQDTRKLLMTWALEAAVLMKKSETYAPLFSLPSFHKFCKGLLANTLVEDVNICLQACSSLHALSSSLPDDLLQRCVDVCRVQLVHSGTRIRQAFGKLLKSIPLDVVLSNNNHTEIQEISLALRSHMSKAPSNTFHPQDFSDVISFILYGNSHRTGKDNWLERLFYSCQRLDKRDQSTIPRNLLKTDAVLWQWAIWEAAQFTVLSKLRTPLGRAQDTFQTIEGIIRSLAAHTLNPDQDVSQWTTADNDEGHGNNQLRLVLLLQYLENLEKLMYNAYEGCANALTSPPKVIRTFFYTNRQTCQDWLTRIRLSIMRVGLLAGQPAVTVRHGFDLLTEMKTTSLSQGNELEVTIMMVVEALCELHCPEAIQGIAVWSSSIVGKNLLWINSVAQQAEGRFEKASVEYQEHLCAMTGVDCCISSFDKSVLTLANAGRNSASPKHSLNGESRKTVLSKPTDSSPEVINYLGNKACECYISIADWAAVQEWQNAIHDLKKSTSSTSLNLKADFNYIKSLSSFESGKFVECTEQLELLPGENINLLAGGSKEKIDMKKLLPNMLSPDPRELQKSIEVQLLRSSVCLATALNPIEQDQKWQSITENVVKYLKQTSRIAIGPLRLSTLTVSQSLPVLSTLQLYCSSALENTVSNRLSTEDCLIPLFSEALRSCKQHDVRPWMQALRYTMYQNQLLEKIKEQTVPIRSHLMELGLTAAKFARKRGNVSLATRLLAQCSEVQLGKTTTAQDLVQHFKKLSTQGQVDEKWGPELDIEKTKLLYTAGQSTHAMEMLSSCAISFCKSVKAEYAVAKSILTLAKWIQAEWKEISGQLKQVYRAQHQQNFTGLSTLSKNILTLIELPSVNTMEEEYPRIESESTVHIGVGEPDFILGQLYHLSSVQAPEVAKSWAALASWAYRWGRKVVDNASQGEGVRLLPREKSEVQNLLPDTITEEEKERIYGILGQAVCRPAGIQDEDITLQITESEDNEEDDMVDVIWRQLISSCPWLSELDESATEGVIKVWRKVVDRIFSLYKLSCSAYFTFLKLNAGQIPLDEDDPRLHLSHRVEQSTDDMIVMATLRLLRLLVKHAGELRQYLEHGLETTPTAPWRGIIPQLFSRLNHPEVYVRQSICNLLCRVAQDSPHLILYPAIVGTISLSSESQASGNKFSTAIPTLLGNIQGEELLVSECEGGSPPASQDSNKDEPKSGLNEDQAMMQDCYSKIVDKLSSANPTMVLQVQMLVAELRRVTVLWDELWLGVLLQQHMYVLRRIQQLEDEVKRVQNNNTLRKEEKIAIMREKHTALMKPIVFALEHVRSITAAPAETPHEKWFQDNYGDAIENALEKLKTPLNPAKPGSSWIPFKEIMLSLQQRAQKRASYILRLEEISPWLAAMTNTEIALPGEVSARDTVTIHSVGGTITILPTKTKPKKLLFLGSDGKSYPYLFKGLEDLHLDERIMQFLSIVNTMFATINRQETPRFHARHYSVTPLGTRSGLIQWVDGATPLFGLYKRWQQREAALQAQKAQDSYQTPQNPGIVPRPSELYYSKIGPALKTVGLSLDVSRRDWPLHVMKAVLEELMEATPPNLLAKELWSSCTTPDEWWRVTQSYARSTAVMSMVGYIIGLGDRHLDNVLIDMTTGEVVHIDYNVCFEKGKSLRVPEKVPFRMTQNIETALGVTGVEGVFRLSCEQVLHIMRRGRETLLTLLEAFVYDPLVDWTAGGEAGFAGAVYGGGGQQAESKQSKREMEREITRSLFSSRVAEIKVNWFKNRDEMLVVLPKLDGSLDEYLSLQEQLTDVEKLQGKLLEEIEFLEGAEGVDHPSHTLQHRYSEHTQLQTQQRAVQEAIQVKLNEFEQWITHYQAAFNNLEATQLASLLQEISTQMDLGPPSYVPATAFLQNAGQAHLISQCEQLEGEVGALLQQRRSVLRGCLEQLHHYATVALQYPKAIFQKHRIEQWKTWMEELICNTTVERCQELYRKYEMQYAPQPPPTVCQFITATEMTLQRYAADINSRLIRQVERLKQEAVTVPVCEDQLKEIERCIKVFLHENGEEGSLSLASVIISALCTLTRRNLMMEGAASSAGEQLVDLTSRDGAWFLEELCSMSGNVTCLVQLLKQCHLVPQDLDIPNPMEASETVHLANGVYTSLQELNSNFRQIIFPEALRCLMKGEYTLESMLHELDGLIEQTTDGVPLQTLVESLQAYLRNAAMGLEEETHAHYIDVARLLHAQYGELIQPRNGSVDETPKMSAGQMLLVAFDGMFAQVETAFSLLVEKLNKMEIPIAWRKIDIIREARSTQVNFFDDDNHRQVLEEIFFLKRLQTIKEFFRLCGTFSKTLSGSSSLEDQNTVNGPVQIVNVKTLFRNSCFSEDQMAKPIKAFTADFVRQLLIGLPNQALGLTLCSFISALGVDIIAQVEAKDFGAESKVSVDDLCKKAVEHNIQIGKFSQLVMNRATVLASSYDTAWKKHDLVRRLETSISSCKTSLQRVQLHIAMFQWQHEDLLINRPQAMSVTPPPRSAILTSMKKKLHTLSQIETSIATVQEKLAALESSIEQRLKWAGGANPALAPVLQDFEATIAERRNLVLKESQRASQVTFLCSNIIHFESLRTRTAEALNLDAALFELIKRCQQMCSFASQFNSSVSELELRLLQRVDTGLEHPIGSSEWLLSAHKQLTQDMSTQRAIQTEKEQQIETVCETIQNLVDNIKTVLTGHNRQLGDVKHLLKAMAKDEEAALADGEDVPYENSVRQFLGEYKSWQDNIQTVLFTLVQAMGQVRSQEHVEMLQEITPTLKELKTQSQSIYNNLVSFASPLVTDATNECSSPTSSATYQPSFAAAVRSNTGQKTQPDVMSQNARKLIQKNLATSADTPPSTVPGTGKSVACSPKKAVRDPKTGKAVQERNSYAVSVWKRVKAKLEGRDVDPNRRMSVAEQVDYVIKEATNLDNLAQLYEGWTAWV
UniProt Q5K4L6: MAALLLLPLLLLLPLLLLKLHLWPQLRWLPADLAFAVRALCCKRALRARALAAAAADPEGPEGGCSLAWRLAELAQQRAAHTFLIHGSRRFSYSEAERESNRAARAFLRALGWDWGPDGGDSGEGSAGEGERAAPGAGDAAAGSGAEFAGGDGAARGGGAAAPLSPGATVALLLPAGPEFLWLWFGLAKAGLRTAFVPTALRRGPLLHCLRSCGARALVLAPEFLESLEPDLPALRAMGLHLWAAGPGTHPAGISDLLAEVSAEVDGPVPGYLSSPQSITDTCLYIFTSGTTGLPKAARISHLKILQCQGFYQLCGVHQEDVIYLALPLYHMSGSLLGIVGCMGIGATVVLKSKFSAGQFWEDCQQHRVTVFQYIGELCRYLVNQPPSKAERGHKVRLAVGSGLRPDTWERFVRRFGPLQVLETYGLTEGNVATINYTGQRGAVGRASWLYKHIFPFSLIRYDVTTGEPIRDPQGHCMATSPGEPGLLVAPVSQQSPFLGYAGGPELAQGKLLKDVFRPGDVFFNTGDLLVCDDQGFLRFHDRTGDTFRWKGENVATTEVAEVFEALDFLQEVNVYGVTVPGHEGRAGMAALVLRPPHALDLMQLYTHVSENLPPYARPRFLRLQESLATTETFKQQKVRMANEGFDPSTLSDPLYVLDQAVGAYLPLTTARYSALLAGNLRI
UniProt Q9BWU0: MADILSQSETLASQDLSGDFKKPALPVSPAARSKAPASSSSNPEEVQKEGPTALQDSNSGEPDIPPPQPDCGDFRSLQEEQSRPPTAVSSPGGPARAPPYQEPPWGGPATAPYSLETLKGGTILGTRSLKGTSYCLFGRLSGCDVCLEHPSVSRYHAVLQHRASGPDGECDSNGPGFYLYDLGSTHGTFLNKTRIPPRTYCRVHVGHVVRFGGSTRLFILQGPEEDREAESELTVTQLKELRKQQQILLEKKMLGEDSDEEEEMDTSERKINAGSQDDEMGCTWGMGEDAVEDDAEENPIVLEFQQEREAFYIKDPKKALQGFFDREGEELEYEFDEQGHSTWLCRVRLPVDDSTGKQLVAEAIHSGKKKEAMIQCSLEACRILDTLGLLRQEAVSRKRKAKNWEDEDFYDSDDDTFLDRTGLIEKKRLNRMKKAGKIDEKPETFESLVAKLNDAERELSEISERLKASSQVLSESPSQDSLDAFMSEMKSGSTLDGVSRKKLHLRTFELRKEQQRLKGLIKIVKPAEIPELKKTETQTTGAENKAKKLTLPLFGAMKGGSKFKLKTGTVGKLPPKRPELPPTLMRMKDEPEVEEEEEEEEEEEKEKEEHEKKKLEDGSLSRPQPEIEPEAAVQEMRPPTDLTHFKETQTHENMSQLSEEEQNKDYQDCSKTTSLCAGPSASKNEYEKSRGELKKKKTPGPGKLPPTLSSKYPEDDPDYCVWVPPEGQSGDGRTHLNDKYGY
UniProt Q8NBI5: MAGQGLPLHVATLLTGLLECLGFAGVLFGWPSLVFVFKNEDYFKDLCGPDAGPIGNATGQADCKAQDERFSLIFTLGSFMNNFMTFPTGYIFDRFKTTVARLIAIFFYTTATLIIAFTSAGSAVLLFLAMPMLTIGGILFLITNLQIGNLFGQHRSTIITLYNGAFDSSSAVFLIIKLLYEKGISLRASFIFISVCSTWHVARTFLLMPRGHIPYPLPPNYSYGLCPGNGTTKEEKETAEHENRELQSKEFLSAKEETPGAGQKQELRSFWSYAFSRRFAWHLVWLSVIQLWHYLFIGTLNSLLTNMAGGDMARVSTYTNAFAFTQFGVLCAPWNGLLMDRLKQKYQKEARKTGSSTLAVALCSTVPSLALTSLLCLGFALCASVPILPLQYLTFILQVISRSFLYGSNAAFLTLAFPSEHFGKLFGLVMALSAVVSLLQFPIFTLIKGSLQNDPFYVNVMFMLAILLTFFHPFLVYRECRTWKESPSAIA
UniProt Q8IW52: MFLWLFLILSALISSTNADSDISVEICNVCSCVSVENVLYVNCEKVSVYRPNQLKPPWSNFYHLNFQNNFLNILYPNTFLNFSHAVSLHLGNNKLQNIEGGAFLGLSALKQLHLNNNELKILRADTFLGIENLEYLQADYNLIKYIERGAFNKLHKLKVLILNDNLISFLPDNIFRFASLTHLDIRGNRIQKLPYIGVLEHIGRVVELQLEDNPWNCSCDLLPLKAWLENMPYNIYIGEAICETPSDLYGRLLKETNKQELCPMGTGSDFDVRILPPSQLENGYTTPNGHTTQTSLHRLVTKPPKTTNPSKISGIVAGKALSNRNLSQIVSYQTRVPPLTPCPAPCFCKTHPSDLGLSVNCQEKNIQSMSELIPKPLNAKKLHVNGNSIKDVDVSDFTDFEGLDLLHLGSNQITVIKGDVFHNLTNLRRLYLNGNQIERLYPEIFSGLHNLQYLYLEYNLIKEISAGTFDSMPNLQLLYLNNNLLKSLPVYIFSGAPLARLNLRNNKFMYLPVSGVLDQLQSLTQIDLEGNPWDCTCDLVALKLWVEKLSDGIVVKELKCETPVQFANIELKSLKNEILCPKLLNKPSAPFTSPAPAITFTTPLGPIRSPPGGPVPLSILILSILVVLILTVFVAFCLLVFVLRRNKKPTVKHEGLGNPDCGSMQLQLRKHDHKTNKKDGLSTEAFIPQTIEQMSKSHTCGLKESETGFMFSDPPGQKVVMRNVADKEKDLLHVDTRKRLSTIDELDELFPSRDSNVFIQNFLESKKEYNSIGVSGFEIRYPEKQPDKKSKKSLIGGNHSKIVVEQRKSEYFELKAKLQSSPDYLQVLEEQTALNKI

Compound: CC1Cc2ccccc2N1C(=O)C1CCCN(C1)C(=O)CCl (mixture of isomers) [TRIM25 ligand 11 (diastereomer mixture)]
Test: probe-labelled cysteine peptide fold change vs DMSO (competition) (log2 fold change); higher = less target engagement (more negative = stronger competition)
Conditions: THP-1, incubation time: 4 h
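Note: competitive chemoproteomic profiling in live THP-1 cells with an iodoacetamide desthiobiotin (IA-DTB) probe, comparing probe-labelled peptide intensities in compound-treated cells against DMSO-treated controls.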

| Target | probe-labelled cysteine peptide fold change (10 µM) | probe-labelled cysteine peptide fold change (50 µM) |
| --- | --- | --- |
| SMARCA5_O60264_519_VLDILEDYCMWR (UniProt O60264) | -0.0513 | -0.0283 |
| SMG1_Q96Q15_2738_LKQEAVTVPVCEDQLK (UniProt Q96Q15) | 0.072 | -0.0832 |
| SLC27A3_Q5K4L6_579_DVFRPGDVFFNTGDLLVCDDQGFLR (UniProt Q5K4L6) | -0.1 | -0.123 |
| SMAD3_P84022_332_YGWHPATVCK (UniProt P84022) | -0.0236 | 0.0575 |
| SMCHD1_A6NHR9_1445_IKDNDKEDGCFYFR (UniProt A6NHR9) | -0.209 | -0.211 |
| SNRNP200_O75643_331_MMILYCTLLASAQSEAEK (UniProt O75643) | 0.218 | 0.217 |
| SMARCA4_P51532_423_QEVVVCMR (UniProt P51532) | 0.0983 | 0.11 |
| SLC4A1AP_Q9BWU0_430_EAMIQCSLEACR (UniProt Q9BWU0) | -0.0801 | 0.0527 |
| SLC43A3_Q8NBI5_226_GHIPYPLPPNYSYGLCPGNGTTK (UniProt Q8NBI5) | 0.0564 | 0.256 |
| SLITRK4_Q8IW52_580_NEILCPK (UniProt Q8IW52) | 0.195 | -0.00736 |

No new results follow: entries from further up.

| Target | probe-labelled cysteine peptide fold change (10 µM) | probe-labelled cysteine peptide fold change (50 µM) |
| --- | --- | --- |
| SLC4A1AP_Q9BWU0_430_EAMIQCSLEACR (UniProt Q9BWU0) | -0.0801 | 0.0527 |
| SLC43A3_Q8NBI5_226_GHIPYPLPPNYSYGLCPGNGTTK (UniProt Q8NBI5) | 0.0564 | 0.256 |
